The experiment deals with T1, murine BMI1-2Py (murine) (UniProt P25916).
T1 sequence: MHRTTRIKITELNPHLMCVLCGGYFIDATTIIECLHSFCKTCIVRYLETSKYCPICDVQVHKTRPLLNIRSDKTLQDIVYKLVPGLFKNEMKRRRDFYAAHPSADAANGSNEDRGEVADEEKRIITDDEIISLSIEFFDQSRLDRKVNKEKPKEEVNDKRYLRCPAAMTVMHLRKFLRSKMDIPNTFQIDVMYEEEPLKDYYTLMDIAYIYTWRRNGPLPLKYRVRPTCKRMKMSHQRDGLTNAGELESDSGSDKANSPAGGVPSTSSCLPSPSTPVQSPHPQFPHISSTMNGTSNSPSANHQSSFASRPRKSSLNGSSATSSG
Briefly: co-IP; U2-OS cells with or without BMI1-2Py, serum-starved, then stimulated with mitogens (FCS/TPA) or selenite, also after p38 inhibitor; cells cross-linked or lysed directly in ELB buffer (50 mM HEPES pH 7.0, 250 mM NaCl, 5 mM EDTA, 0.1% NP-40); PRC1-directed IP on protein G beads, immunoblot. (In general: A western blot detects proteins with antibodies after separation by electrophoresis.)

No constants are given. Whether binding was seen depends on the method and setting. In cells and extracts the contact can be indirect. Some results given as binding are weak or reduced against the parent protein; the word gives no strength.

B1: CBX4 (protein, UniProt O00257 1-560)
chain: MELPAVGEHVFAVESIEKKRIRKGRVEYLVKWRGWSPKYNTWEPEENILDPRLLIAFQNRERQEQLMGYRKRGPKPKPLVVQVPTFARRSNVLTGLQDSSTDNRAKLDLGAQGKGQGHQYELNSKKHHQYQPHSKERAGKPPPPGKSGKYYYQLNSKKHHPYQPDPKMYDLQYQGGHKEAPSPTCPDLGAKSHPPDKWAQGAGAKGYLGAVKPLAGAAGAPGKGSEKGPPNGMMPAPKEAVTGNGIGGKMKIVKNKNKNGRIVIVMSKYMENGMQAVKIKSGEVAEGEARSPSHKKRAADERHPPADRTFKKAAGAEEKKVEAPPKRREEEVSGVSDPQPQDAGSRKLSPTKEAFGEQPLQLTTKPDLLAWDPARNTHPPSHHPHPHPHHHHHHHHHHHHAVGLNLSHVRKRCLSETHGEREPCKKRLTARSISTPTCLGGSPAAERPADLPPAAALPQPEVILLDSDLDEPIDLRCVKTRSEAGEPPSSLQVKPETPASAAVAVAAAAAPTTTAEKPPAEAQDEPAESLSEFKPFFGNIIITDVTANCLTVTFKEYVTV
Turning to B1, the binding entry was “binds”.

The values above are taken from PMC3499388.
